Data published in paper PMC11304990, “Identification of mitochondrial ATP synthase as the cellular target of Ru-polypyridyl-β-carboline complexes by affinity-based protein profiling” (National Science Review, 2024).

Test system: A549 cells
Test: RNA-sequencing
Format: cell-based, human
Conditions: 10 μM, 12 h

F[P-](F)(F)(F)(F)F.F[P-](F)(F)(F)(F)F.[Ru+2].c1ccc2c(c1)[nH]c1c(-c3ncc[nH]3)nccc12.c1cnc2c(c1)ccc1cccnc12.c1cnc2c(c1)ccc1cccnc12 [Ru5]
DEGs down-regulated: 844 | DEGs up-regulated: 673 | Total number of DEGs (|Fold change| ≥ 2.0, FDR ≤ 0.05): 1517
